In patent publication US20160272706A1:
Results are given in words; binding and its absence hold for the method and conditions named. Some entries that bind do so weakly or less than the wild type.

Chains of the proteins cited; added tags and fusions are not shown. Residues count along the entry.
UniProt P35225, residues 35-146: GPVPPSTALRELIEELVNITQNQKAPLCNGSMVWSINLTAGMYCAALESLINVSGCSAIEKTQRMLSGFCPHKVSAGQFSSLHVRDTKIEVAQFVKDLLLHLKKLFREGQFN

Target: Human IL-13 (human) (UniProt P35225)
Assay: biochemical receptor-ligand inhibition assay and biological TF-1 assay

binding: binds
B1: 13NG0027 (antibody, V domains shown)
VH: QVQLVQSGAEVKKPGASVKVSCKASGYNVNQTGLSWVRQAPGQGLEWMGWINYDGGNTQYGQEFQGRVTMTTDTSTSTAYMELRSLRSDDTAVYYCARDSSSSWARWFFDLWGRGTLVTVSS
VL: SYVLTQPPSVSVAPGKTARIPCGGNIIGSKLVHWYQQKPGQAPVLIVFDDEDRPSGIPERFSGSNSGNTATLTISRVEAGDEADYYCQVWDTGSDPVVFGGGTKLTVL
